Where only a bound is given, the exact number is not on record here.

Amino acid sequences for entries named in this document (tags omitted). A change or cut given only in a name is not applied to a line headed by its entry.
UniProt P50233: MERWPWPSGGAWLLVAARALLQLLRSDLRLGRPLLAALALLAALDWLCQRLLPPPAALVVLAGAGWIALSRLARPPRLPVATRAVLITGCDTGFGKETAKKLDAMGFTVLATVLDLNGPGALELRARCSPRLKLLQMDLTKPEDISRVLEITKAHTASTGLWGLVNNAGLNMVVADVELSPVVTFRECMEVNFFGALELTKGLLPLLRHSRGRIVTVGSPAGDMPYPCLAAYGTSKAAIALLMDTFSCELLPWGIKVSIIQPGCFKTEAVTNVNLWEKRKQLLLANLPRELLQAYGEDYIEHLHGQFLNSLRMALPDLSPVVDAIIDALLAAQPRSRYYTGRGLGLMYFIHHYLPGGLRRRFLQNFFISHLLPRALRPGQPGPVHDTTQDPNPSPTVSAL

The target of this assay is rat placental HSD11B2 (Rattus norvegicus, UniProt P50233). Description: biochemical. The settings on record: read-out: Inhibition of rat placental HSD11B2 activity.

As to `CC/C(=C(/CC)c1ccc(O)cc1)c1ccc(O)cc1` [DES, Diethylstilbestrol], the inhibition at 100 µM is above 50%.

One may read the inhibition as the change of the read-out against control, counted positive when it falls.

(Values after publication PMC6652260 (Endocrine Connections, 2019).)
